Results from PubChem BioAssay AID485349 (National Center for Advancing Translational Sciences (NCATS), 2010).
Among all 320,000 compounds or so, about 620 (0.19%) were called active. Inconclusive means that the source gave no clear call. Such entries were picked first, then a sample of the others. The call rests on the fitted dose curve; in most records, active means well fitted activation curve with a large enough effect; inconclusive means small, poorly fitted or top-dose-only effect; inactive means no such curve, though single readings can be large or run the other way. Where the call is inconclusive, the potency comes from a doubtful curve fit.

test: qHTS Assay for Identifying a Potential Treatment of Ataxia-Telangiectasia; settings: […] A-T fibroblasts, KAP-1 phosphorylation AlphaLISA, neocarzinostatin DNA damage 30 min before lysis; series mostly up to 57.5 µM; activation: at the top concentration; further: nearly all actives have a fitted effect of over 45% in size; on activation: % of control where 0% means no effect
Procedure, shortened: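 hTERT-immortalized A-T patient fibroblasts ([…]), 500 cells/well in OPTI-MEM, 1% FBS, got compounds for 60 min, then NCS for 30 min at 37C. Lysates were then assayed for phospho-KAP-1 by AlphaLISA (anti-pKAP1 donor, anti-KAP1 acceptor beads), 6 hr at 25C.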
Potency means the concentration at half of the fitted maximal effect.

SMILES | Potency | activation
c1ccc(N2N=C(c3cccs3)CC2c2ccco2)cc1 (stereo not given) | active: 28.2 µM | 
COc1ccc(-c2cc(C(=O)OCC(=O)N3CCCC3)c3ccccc3n2)cc1 |  | inactive: 19.6%
COc1cc2c(cc1OC)C(C)N(C(=O)Nc1ccccc1)CC2 (stereo not given) |  | inactive: 3.26%
COc1ccc2c(c1)C(=O)OC2CC(=O)O (stereo not given) | inconclusive: 31.6 µM [activator, single point] | 
Cc1cc(C)cc(NC(=O)CSc2nc3ccccc3nc2N2CCCCC2)c1 | inconclusive: 39.8 µM [activator, single point] | 
CCOC(CNC(=O)c1cccc([N+](=O)[O-])c1)OCC | inconclusive: 39.8 µM [activator, partial curve, poor fit] | 
S=c1[nH]nc(-c2ccc(Cl)cc2)n1-c1ccc2c(c1)OCCO2 |  | inactive: -1.3%
COc1ccc(NC(=O)/C(=C\c2ccc(OS(=O)(=O)c3ccc(C)cc3)cc2)NC(=O)c2ccccc2)cc1 | inconclusive: 7.08 µM [activator, single point] | 
CC(=O)c1ccccc1N(C(=O)c1ccco1)C(C(=O)NC1CCCC1)c1ccc(C)cc1 (stereo not given) |  | inactive: -5.21%
O=C(Nc1ccc(Cl)cc1)Nc1nc(-c2ccccc2O)cs1 | active: 39.8 µM | 
CCC(=O)Nc1nc(C)c(-c2csc(Nc3cccc(C(=O)O)c3)n2)s1 | inconclusive: 8.91 µM [activator, single point] | 
Cc1ccc(S(=O)(=O)N2CCOCC2)cc1NC(=O)COc1cccc(Oc2ccccc2)c1 |  | inactive: 2.59%
C[C@@H]1NS(=O)(=O)[C@H]2C[C@@H]3C=C[C@]2(O3)[C@H]1OC(=O)c1ccc(C(C)(C)C)cc1 |  | inactive: 17%
C=CC[C@@H](CC(=O)NCCO)C(=O)N[C@H](C)COC(=O)[C@@H](CC=C)Cc1ccc(F)cc1 |  | inactive: 11.3%
CCCCNc1c(-c2cccc(-c3ccc(OC)cc3)c2)nc2cc(C)ccn12 | inconclusive: 35.5 µM [activator, partial curve] | 
CCc1nc(NC2CCCCC2)c(C#N)c2c1COC(C)(C)C2 | inconclusive: 39.8 µM [activator, single point] | 
CCCCCC/C=C/c1ccc([C@H]2[C@H]3C=CC[C@@H](C)[C@@H]3C(=O)N2Cc2ccccc2)c(F)c1 | inconclusive: 0.708 µM [activator, full curve, poor fit] | 
COc1ccc(C)cc1S(=O)(=O)NCc1cccs1 |  | inactive: -1.23%
Cc1sc2nc(SCC(=O)N(C)Cc3ccccc3)n(-c3ccccc3)c(=O)c2c1C | inconclusive: 1.41 µM [activator, full curve, poor fit] | 
COc1ccccc1N1CC(C)(C)C(=O)N(C(=O)c2ccc(Cl)cc2)C1=S | inconclusive: 39.8 µM [activator, single point] | 

Two entries drawn at random from those above:
SMILES | Potency | activation
COc1ccccc1N1CC(C)(C)C(=O)N(C(=O)c2ccc(Cl)cc2)C1=S | inconclusive: 39.8 µM [activator, single point] | 
CCc1nc(NC2CCCCC2)c(C#N)c2c1COC(C)(C)C2 | inconclusive: 39.8 µM [activator, single point] | 
